What all share (assay): affinity purification with mass spectrometry; Co-IP with anti-MCR-1 mAb 3G4 and G-Sepharose from E. coli lysates (50 mM Tris-HCl pH 7.5, 300 mM NaCl, 1 mM PMSF, 1% DDM), 4°C; co-precipitates eluted with 0.2 M glycine pH 2.3 and identified by nano LC-MS/MS; anti-IgG and empty vector pull-downs as negative controls
Experiment [1] has as its target T1, MCR-1-200 catalytic domain protein (E. coli (strain SHP45)).
T1 sequence: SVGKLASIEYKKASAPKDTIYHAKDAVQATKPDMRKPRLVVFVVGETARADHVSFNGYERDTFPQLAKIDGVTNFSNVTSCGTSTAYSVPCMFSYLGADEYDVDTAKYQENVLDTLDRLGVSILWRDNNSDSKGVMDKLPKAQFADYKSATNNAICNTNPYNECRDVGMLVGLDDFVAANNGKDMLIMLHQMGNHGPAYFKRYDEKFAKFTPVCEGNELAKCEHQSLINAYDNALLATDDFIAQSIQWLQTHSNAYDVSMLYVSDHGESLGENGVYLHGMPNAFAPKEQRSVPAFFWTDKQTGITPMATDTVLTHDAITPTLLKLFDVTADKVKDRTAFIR

The chains behind the UniProt entries cited, without tags or fusion partners.
UniProt P0ACF0: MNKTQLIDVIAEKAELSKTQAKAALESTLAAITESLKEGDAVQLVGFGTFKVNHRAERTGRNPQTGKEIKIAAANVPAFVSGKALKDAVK
UniProt P0A6Y8: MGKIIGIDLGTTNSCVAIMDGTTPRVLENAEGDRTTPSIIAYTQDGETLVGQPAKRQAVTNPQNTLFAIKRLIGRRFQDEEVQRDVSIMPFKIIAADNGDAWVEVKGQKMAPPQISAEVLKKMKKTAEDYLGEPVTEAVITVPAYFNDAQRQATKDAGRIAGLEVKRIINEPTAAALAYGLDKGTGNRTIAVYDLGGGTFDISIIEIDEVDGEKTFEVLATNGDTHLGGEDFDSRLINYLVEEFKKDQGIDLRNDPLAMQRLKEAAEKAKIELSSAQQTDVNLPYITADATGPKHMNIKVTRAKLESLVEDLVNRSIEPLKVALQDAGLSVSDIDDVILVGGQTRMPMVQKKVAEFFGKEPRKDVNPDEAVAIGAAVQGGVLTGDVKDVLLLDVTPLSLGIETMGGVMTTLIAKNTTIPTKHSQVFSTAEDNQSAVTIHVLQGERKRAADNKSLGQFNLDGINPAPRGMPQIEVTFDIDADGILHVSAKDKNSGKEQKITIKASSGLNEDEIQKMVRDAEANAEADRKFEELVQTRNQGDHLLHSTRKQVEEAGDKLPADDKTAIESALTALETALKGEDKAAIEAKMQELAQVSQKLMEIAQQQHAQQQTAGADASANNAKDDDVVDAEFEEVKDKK
UniProt P0AFZ3: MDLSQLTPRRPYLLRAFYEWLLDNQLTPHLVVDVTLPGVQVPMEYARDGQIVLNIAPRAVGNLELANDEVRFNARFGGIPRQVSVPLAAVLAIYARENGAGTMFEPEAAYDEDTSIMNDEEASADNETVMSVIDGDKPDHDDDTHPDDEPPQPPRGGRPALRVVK

For experiment [2], the target named is T2, MCR-1 full-length protein (E. coli (strain SHP45)).
T2 sequence: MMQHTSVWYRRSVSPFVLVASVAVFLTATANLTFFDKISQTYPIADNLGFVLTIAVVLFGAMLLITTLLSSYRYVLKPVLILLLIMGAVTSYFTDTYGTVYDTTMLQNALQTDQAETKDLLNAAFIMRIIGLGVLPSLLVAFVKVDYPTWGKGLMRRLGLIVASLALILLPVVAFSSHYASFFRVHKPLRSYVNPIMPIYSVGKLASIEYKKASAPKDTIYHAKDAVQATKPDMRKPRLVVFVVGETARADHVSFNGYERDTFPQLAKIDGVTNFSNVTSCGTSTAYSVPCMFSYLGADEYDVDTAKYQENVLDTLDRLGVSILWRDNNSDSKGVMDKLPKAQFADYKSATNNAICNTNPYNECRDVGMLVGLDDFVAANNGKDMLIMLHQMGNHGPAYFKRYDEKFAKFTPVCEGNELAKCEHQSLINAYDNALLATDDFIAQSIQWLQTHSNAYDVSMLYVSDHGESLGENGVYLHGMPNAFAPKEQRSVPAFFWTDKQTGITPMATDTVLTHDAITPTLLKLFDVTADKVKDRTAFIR

Experiment [3] has as its target T3, MCR-1 (from pUC19-mcr-1) (E. coli).
T3 sequence: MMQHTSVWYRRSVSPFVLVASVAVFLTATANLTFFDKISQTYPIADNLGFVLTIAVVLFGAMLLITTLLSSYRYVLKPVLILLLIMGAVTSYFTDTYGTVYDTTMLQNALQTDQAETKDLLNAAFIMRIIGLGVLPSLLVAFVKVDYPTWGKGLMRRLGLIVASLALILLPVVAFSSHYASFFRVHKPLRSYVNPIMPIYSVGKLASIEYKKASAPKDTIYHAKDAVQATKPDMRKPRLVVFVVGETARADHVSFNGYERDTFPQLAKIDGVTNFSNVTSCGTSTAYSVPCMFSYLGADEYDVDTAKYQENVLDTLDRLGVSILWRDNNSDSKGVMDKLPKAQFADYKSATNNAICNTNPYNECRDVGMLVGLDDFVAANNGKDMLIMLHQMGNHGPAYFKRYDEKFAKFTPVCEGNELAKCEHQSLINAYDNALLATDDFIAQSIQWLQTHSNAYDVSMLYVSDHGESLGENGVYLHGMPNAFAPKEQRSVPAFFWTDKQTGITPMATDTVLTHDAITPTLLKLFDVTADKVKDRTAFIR

These are yes or no findings as the source states them, for the method shown. In cells and extracts the contact can be indirect. These calls come from enrichment with a bait or labelling near it, and not all partners need be listed.

For the molecule “DNA-binding protein HU-alpha (from UniProt P0ACF0 1-90)”, the binding result in experiment [1] and in experiment [2] was “binds” throughout.
Regarding “Chaperone protein DnaK (from UniProt P0A6Y8 1-638)”, the binding result in experiment [1], in experiment [2] and in experiment [3] was “binds” throughout.
For “Stringent starvation protein B (from UniProt P0AFZ3 1-165)”, the binding entry in experiment [1], in experiment [2] and in experiment [3] was “binds” each time.

B1: DNA-binding protein HU-beta (protein, UniProt P0ACF4 1-90)
chain: MNKSQLIDKIAAGADISKAAAGRALDAIIASVTESLKEGDDVALVGFGTFAVKERAARTGRNPQTGKEITIAAAKVPSFRAGKALKDAVN
For B1, the binding entry in experiment [1] and in experiment [2] was “binds” each time.

B2: DNA-binding protein H-NS (protein, UniProt P0ACF8 1-137)
chain: MSEALKILNNIRTLRAQARECTLETLEEMLEKLEVVVNERREEESAAAAEVEERTRKLQQYREMLIADGIDPNELLNSLAAVKSGTKAKRAQRPAKYSYVDENGETKTWTGQGRTPAVIKKAMDEQGKSLDDFLIKQ
As to B2, the binding result in experiment [1], in experiment [2] and in experiment [3] was “binds” each time.

B3: HofN (protein, UniProt P64634 1-179)
chain: MNPPINFLPWRQQRRTAFLRFWLLMFVAPLLLAVGITLILRLTGSAEARIDAVLLQAEQQLARSLQITKPRLLEQQQLREQRSQRQRQRQFTRDWQSALEALAALLPEHAWLTTISWQQGTLEIKGLTTSITALNALETSLRQDASFHLNQRGATQQDAQGRWQFEYQLTRKVSDEHVL
Consider B3, for which the binding result in experiment [1] is recorded as “binds”.

For the origin of these results see publication PMC7868338, “Identification of Functional Interactome of Colistin Resistance Protein MCR-1 in Escherichia coli” (Frontiers in Microbiology, 2020).
